Results published in the supplement of paper PMC3334620.
Whole data set: some 33,000 sequences, median “E-score (-0.5 to 0.5)” near -0.0034, cut for the highest 2% near 0.25. This is one part of the list.

Target: T1, Yap3 (UniProt P38749)
T1 sequence: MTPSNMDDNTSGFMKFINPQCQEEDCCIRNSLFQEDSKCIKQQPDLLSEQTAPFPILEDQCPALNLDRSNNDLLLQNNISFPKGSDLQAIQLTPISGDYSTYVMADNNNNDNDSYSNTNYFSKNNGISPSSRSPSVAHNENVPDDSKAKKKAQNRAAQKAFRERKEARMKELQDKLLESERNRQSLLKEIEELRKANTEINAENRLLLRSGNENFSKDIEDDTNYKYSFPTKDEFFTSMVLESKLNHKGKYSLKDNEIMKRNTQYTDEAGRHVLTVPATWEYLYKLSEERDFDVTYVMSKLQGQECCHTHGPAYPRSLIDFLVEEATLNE
Test: PBM E-score (8-mer binding enrichment) (E-score (-0.5 to 0.5)); higher = stronger / more preferred TF binding
Settings: protein concentration: 100 nM; construct: GST-full length
Procedure, shortened: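 PURExpress in vitro transcription/translation supplied GST-tagged yeast transcription factors, either full-length or DNA-binding domain. Applied at about 100-200 nM to universal all-10-mer Agilent arrays double-stranded by primer extension, the bound protein was detected with fluorescent anti-GST. E-scores, modified Wilcoxon-Mann-Whitney statistics, were given by the Universal PBM Analysis Suite to ungapped eight-base words pooled with their reverse complements after masliner normalisation.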

Sequence | PBM E-score
ACTACCCA | -0.0314
CCTGCGGC | -0.361
AAACCACC | 0.0609
AGAAGATC | -0.0464
CCCCGGGA | -0.261
CCAGTGCA | -0.144
CCGAGCTC | 0.0167
AGCAACAT | -0.00444
CAGATCCC | -0.177
CACAACCG | 0.0416
ATAAGATC | 0.0129
GGCAGCCA | -0.0896
CCTTCTTA | 0.00916
GCTCTAGA | -0.245
ATGGACGA | 0.0949
ATGTGGAC | -0.0215
CTACTTGA | 0.0551
ATGTCTCC | 0.0848
ACCGGGAG | -0.262
TAACACTA | 0.245
ACCAAAAC | 0.104
GAATATCA | 0.159
CTGGACGC | -0.133
CGTGAAGA | -0.0711
GGACCGGA | -0.112

Sequence | PBM E-score
AGGACCGG | -0.305
ACGACAGA | 0.0226
GACGAGCA | -0.0184
ACTCCGCG | 0.0459
GTGGAATA | 0.084
CTCTGATC | -0.00192
ATCCAAGA | 0.026
CATGCTGG | -0.0666
ACTTCGAC | -0.0567
CGCCAAAA | 0.107
TGAGATAA | 0.181
GCGTAGAC | -0.231
CTGTTACC | -0.0269
TATTCCAA | 0.0984
GTGGCGTA | -0.0591
TCGACCAA | -0.0266
CATTCTTA | 0.0235
AGGAACTG | -0.237
ACCGCCAA | -0.00074
ACCGGCGC | 0.0314
ATGTTGTG | 0.119
AGAGTAAA | 0.0554
GCGAGCTA | -0.00275
ACAGTCAA | 0.0437
CATTGTCG | -0.022

Sequence | PBM E-score
AACACAAA | 0.202
TCAAAGCA | 0.144
ACGTTACT | 0.141
ATGCGTCC | -0.221
ATAGTAAC | 0.218
GGACGCAA | -0.0406
TAACAGTA | 0.207
CGTGCCCC | -0.235
CGCTACGA | 0.0231
CTGTGTGC | -0.201
CACAGGAG | -0.0309
CTCGAACC | -0.0728
GAAACTAC | 0.127
CCTCCAGC | -0.305
ATATACAT | 0.168
ATTGTTTA | 0.0804
GAACACTA | 0.0354
AGGTATTG | 0.114
ACGACCTC | 0.0252
CATTGTAG | 0.0549
CTTGTTCC | 0.0876
ATAGTTCG | 0.053
CTGTGAAA | 0.264
ACGCACGA | 0.131
CAGGCTAG | -0.237

Sequence | PBM E-score
CGTGTCAG | 0.159
AAATTCCT | 0.00181
GGACCGTA | -0.197
CCCGCGGG | -0.169
ATCGTCTG | -0.242
ACGTGCCA | -0.0528
ACTGGGAC | 0.0285
AGACGATC | -0.233
CATACCAA | 0.11
CTGCGTTC | 0.0475
CCGGAGTA | 0.0373
GCACAGAA | -0.0255
GCACAGCA | -0.107
AACAACGT | 0.145
CTGATAAA | 0.221
ACTATATA | 0.328
CCCGACCC | -0.221
ACCGACAG | -0.0895
ACCGAGTC | -0.174
CATGCTAC | -0.179
AGGCCCAG | -0.24
GATAGCCA | -0.0311
ATATTCGG | 0.115
ATTTACGC | 0.127
TATACTAA | 0.113

A run of entries from the list above:
Sequence | PBM E-score
CTGATAAA | 0.221
ACTATATA | 0.328
CCCGACCC | -0.221

Going on with the list.

Sequence | PBM E-score
GGCGGCCA | -0.056
CGTCAGTC | 9e-05
GGCGCCAA | 0.0353
CGCACACA | 0.16
AAGTTTCA | 0.11
GCTTGCTA | -0.279
AGTTGAGA | -0.054
CCGACTTA | 0.0921
AACAAAGG | 0.141
CCACCACA | -0.104
GTGTCGAA | -0.0549
AGAGTCAG | -0.0772
ATTGTGTA | 0.188
AGCAGGAG | -0.169
AACCCTGG | -0.141
AGTGGGTG | 0.0723
ACATATCT | 0.0612
CGCTGTTA | -0.049
AATGTGTG | 0.147
ACTTAGCC | -0.00723
CCTTGACA | -0.0894
CTTTTTGA | -0.00681
CATTGCCG | 0.0454
AGTAGACA | 0.00632
CCCGTCAA | -0.183

Fetched one by one from the list above, four records:
Sequence | PBM E-score
CGCTGTTA | -0.049
GCTTGCTA | -0.279
GCGTAGAC | -0.231
ACGACCTC | 0.0252

Next records

Sequence | PBM E-score
CACACTTC | 0.0074
AGGTACGA | 0.00509
GATGAATA | 0.242
GAAGCCAC | -0.0421
AAACAGCT | -0.0097
GAAGCAGA | 0.0457
AGATGATA | 0.08
AACCTAAA | 0.142
ACCGGCAG | -0.277
AACGACTC | -0.118
CAGCGCGC | 0.1
GCTACACA | -0.0739
CTGGAAAC | 0.0292
AATGAATC | 0.028
CATGAGTC | 0.179
TAGAGCCA | -0.172
CATTTTTA | -0.0137
AGCTGCTA | -0.0365
CACTAATC | 0.175
GCTACGAC | -0.0678
CACTTCTG | -0.129
ATCGTTCG | 0.136
GAGCCCTA | -0.173
CGTATACA | 0.0282
CACGAATC | 0.0458

Sequence | PBM E-score
CCGAGTGC | -0.0436
CCCTTACA | 0.0323
CATGTTCA | 0.11
AATCCTGA | 0.0232
CATCCATC | -0.12
GCGTCGAC | 0.0911
GTTCTTGA | -0.0293
GCCCGTCA | -0.299
GGAAAACC | -0.11
CTACATTC | -0.0249
TGCTTTAA | 0.153
GCGGCCCA | -0.246
GACGTTCA | -0.0915
CTATTCCC | 0.03
ATTGGGAA | 0.114
ACGTACGC | -0.0347
CAAGCATC | -0.0915
ATCTGGTA | -0.00323
GTAAGTTA | 0.152
AGACCTCC | -0.407
CTCGTCTC | 0.0205
CGTTATTA | 0.183
